Source: the supplement of paper PMC7666118
Some of the results follow.

The compounds below were run against T1, SARS2 (UniProt Q9NP81) (assay: dose-dependent thermal stabilisation call (2D-TPP, DLPTP, 10% FDR) (binary (1 = stabilised)); higher = stabilised by the compound). Conditions: system: HL-60 intact cells; concentration range 0.04-10 µM.
T1 sequence (whole entry): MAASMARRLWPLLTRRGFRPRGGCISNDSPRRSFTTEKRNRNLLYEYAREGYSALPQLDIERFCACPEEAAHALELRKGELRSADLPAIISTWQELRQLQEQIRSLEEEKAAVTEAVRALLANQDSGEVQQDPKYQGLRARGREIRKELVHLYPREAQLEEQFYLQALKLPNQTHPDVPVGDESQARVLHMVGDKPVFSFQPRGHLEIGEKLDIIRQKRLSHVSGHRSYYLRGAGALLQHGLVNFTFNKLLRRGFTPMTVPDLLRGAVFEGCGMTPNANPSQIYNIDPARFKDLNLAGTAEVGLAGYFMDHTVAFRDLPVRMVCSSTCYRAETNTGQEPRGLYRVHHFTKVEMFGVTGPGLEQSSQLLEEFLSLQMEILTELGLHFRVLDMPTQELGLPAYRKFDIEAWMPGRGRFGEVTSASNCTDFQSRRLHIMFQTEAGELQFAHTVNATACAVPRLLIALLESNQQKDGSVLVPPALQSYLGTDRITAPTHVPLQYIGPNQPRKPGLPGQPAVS
Procedure: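 2D thermal proteome profiling in intact HL-60 cells treated with BRD-3811 (0, 0.04, 0.29, 2, 10 uM) for 90 min at 37 C, then heated 3 min at one of 12 temperatures (42-63.9 C). Soluble protein was quantified by TMT10 MS. The value is the DLPTP call of the paper: dose-dependent thermal stabilisation over all temperatures at 10% FDR (F-test of a dose-response against a flat model); one experiment, one call per tested protein.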

Which “dose-dependent thermal stabilisation call” value does the source give for COc1ccc(Cn2ccc3cc(C)c(C(=O)NO)cc32)cc1 here?
Its value is inactive: 0.
